# Experimental data from PMC4384708 (EJNMMI Research, 2015).
# Bridge positions count the residues as written; N and C are the ends. Peptide text beside a SMILES is read from it. * marks the point of attachment. X1 = N[C@@H](CSC1CC(=O)N(CC2CCC(C(=O)*)CC2)C1=O)C(=O)NCCCC[C@@H](C(=O)O)N(CCN(CC(=O)O)CC(=O)O)CCN(CC(=O)O)CC(=O)O
# System: angiogenic active endothelium
# Test: Matrigel plug model, gamma counting of explanted Matrigels
# Type: in vivo, Swiss mice
# Details: corrected for ID and weight
structure (smiles),measurement,setting,value
"CC(=O)N[C@H]1CSSC[C@@H](C(=O)NCC(=O)NCC(=O)N[C@@H](CCCCNC(=O)C2CCC(CN3C(=O)CC(SC[C@H](N)C(=O)NCCCC[C@@H](C(=O)O)N(CCN(CC(=O)O)CC(=O)O)CCN(CC(=O)O)CC(=O)O)C3=O)CC2)C(N)=O)NC(=O)[C@H](CCCNC(=N)N)NC(=O)CNC(=O)[C@H](CC(N)=O)NC1=O (some centres unmarked) [^111In-DTPA-cNGR, metal not drawn] (Ac-CNGRCGGK(X1)-NH2; disulfide 1-5)",uptake ratio hFGF2 supplemented vs. non-hFGF2 supplemented Matrigel,,1.8
same,uptake ratio hFGF2 supplemented Matrigel vs. muscle,hind limb muscle as reference,3.1
